Measurements from the supplement of paper PMC10727501.
The list shows a part of the results. Repeats in this data set agree poorly, so a single value says little.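 Free-swimming zebrafish larvae were scored for O-bend response probability to dark flashes (naive: first five; training: remaining flashes of four 60-flash blocks; test: later 60-flash block) and for turning toward alternating leftward/rightward LED motion (OMR). Six treated larvae were compared with sixty 0.1% DMSO controls; |SSMD|≥2 defined a hit.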

Each compound was assayed on Danio rerio larvae (5 dpf, TLF) (assay: Prob-Train (SSMD vs DMSO vehicle); higher = higher than vehicle (e.g. higher dark-flash O-bend response probability, or better optomotor performance)). Details: 10 µM; pre-incubation: 30-90 min.

Row | Structure (SMILES) | Prob-Train
1 | NC(Cc1c[nH]c2ccc(O)cc12)C(=O)O (stereo not given) [5-hydroxytryptophan (5-HTP)] | -0.162
2 | CN(C)CCC(c1ccccc1)c1ccccn1.O=C(O)/C=C\C(=O)O (stereo not given) [Pheniramine Maleate] | 0.133
3 | CCCc1nn(C)c2c(=O)[nH]c(-c3cc(S(=O)(=O)N4CCN(C)CC4)ccc3OCC)nc12.O=C(O)CC(O)(CC(=O)O)C(=O)O [Sildenafil Citrate] | -0.226
4 | COc1c(O)cc2c(c1O)[C@@H]1O[C@H](CO)[C@@H](O)[C@H](O)[C@H]1OC2=O [Bergenin] | -0.0105
5 | CC[C@H](c1ccc(O)cc1)[C@@H](CC)c1ccc(O)cc1 [Hexestrol] | -2.17
6 | O=C(NC1CCNCC1)c1n[nH]cc1NC(=O)c1c(Cl)cccc1Cl | -0.298
7 | O=C(O)Cn1nnc(-c2cc(N3CCC(Oc4cc(F)ccc4Br)CC3)no2)n1 | -0.137
8 | CCOC(=O)c1ccc(N2NC(=O)/C(=C/c3ccc([N+](=O)[O-])o3)C2=O)cc1 | -0.154
9 | Cn1c(=O)n(-c2ccc(C(C)(C)C#N)cc2)c2c3cc(-c4cnc5ccccc5c4)ccc3ncc21 [BEZ235 (NVP-BEZ235, Dactolisib)] | -1.29
10 | CNCCCC12CCC(c3ccccc31)c1ccccc12.Cl [Maprotiline HCl] | -0.103
11 | CC(=O)O[C@@]1(C(C)=O)CC[C@H]2[C@@H]3C=C(Cl)C4=CC(=O)[C@@H]5C[C@H]5[C@]4(C)[C@@H]3CC[C@@]21C [Cyproterone Acetate] | -1.74
12 | CN1CCCCC1CCN1c2ccccc2Sc2ccc(S(C)=O)cc21.O=S(=O)(O)c1ccccc1 (stereo not given) [Mesoridazine Besylate] | -0.517
13 | COS(=O)(=O)[O-].C[N+]1(C)CCC(=C(c2ccccc2)c2ccccc2)CC1 [Diphemanil Methylsulfate] | 0.386
14 | CCOc1nc2cccc(C(=O)OC(C)OC(=O)OC3CCCCC3)c2n1Cc1ccc(-c2ccccc2-c2nnn[nH]2)cc1 (stereo not given) [Candesartan Cilexetil] | -0.0192
15 | O=C(/C=C/c1ccc(O)cc1)c1ccc(O)cc1O [Isoliquiritigenin] | 0.407
16 | CC1=C(C(=O)O)N2C(=O)[C@@H](NC(=O)[C@H](N)c3ccccc3)[C@@H]2SC1 [Cephalexin] | 0.762
17 | CNC[C@H](O)c1ccc(O)c(O)c1.Cl [Epinephrine HCl] | -0.591
18 | O=C(Nc1c[nH]nc1-c1nc2cc(CN3CCOCC3)ccc2[nH]1)NC1CC1 | -0.169
19 | Cc1cc2nc3c(=O)[nH]c(=O)nc-3n(C[C@H](O)[C@H](O)[C@H](O)CO)c2cc1C [Riboflavin (Vitamin B2)] | -0.728
20 | N#CC[C@@H](C1CCCC1)n1cc(-c2ncnc3[nH]ccc23)cn1 | 0.0781

Grouped by structure, the compounds so far with a cyano group.
Row | Structure (SMILES) | Prob-Train
9 | Cn1c(=O)n(-c2ccc(C(C)(C)C#N)cc2)c2c3cc(-c4cnc5ccccc5c4)ccc3ncc21 [BEZ235 (NVP-BEZ235, Dactolisib)] | -1.29
20 | N#CC[C@@H](C1CCCC1)n1cc(-c2ncnc3[nH]ccc23)cn1 | 0.0781

Next part.

Row | Structure (SMILES) | Prob-Train
21 | COc1ccc2c(c1)c(C1=C(c3c[nH]c4ccccc34)C(=O)NC1=O)cn2CCCN(C)C | 0.15
22 | NC(=O)Nc1cc(-c2cccc(F)c2)sc1C(=O)N[C@H]1CCCNC1 | -0.404
23 | Cn1cc(-c2cnn3c(N)c(Br)c([C@@H]4CCCNC4)nc23)cn1 | 0.12
24 | COc1cc2c(cc1NS(=O)(=O)c1ccc(Br)cc1C)n(C)c(=O)n2C | -0.686
25 | CCCc1nc(C(C)(C)O)c(C(=O)OCc2oc(=O)oc2C)n1Cc1ccc(-c2ccccc2-c2nn[nH]n2)cc1 [Olmesartan Medoxomil] | -0.616
26 | NS(=O)(=O)c1ccc(NC(=O)Nc2ccc(F)cc2)cc1 | 0.0944
27 | O=C1Nc2ccccc2/C1=C1/Nc2ccccc2C1=O [Indirubin] | 0.371
28 | Cc1cc(C(C)Nc2ccccc2)c2nc(N3CCOCC3)cc(=O)n2c1 (stereo not given) | 0.667
29 | Cl.Nc1c(Br)cc(Br)cc1CN[C@H]1CC[C@H](O)CC1 [Ambroxol HCl] | 0.0961
30 | CN(C)C(=O)c1ccc(S(=O)(=O)c2ccc(NC(=O)C(C)(O)C(F)(F)F)c(Cl)c2)cc1 (stereo not given) | 0.0255
31 | CCCCCCCCCCCCCCCCO [1-Hexadecanol] | 1.2
32 | O=C1C[C@@H](c2ccc(O)cc2)Oc2cc(O)cc(O)c21 [Naringenin] | -0.202
33 | Cc1ccc(C)c(OCCCC(C)(C)C(=O)O)c1 [Gemfibrozil] | -2.37
34 | Nc1ccc(C(=O)Nc2cccc(-c3nc(N4CCOCC4)c4oc5ncccc5c4n3)c2)cn1 | -0.497
35 | CN(C)CCOC(C)(c1ccccc1)c1ccccn1.O=C(O)CCC(=O)O (stereo not given) [Doxylamine Succinate] | -0.382
36 | NC1CCN(c2c(F)cc3c(=O)c(C(=O)O)cn(C4CC4)c3c2Cl)C1 (stereo not given) | -0.114
37 | NCC(=O)Nc1ccc(-n2nc(C(F)(F)F)cc2-c2ccc3c(ccc4ccccc43)c2)cc1 | -2.18
38 | C=C1C(=O)[C@]23C(CC[C@@H]1[C@H]2O)[C@]12CO[C@]3(O)[C@H](O)[C@@H]1C(C)(C)CC[C@@H]2O (stereo not given in full) [Oridonin] | -0.811
39 | Nc1nc(N)c2nc(-c3cccc(O)c3)cnc2n1 | -0.132
40 | O=C(NCc1ccccc1)c1csc(Nc2ccncn2)n1 [Thiazovivin] | -0.204
